Assay results

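MCF 10A normal breast cells exposed to compound for 48 hr, then Hoechst-stained and imaged for nuclear DNA content as a sign of re-replication.
The compounds were tested as a dilution series from about 0.0029 to 46 µM.
The number is the fitted potency (AC50, nM) for inducing re-replication, and a lower value means a more potent compound.
Curve class and fitted potency set a score; scores of 40–100 are called active and scores of 1–39 are called inconclusive.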

Values are in nM.
Every entry below has the call inconclusive.
These entries are mostly ones the record files as inconclusive; other results of the assay are not listed here.
A potency from a partial, single-point or poor curve is only a rough figure.
Some entries filed as inconclusive have a full curve.
Activity scores are not listed here.
An entry listed twice with the same setting is a separate test.

| Compound | fitted potency (nM) | curve as filed |
|---|---|---|
| `CCCN(CCC)C(=O)Cc1c(-c2ccc(Cl)cc2)nc2c(Cl)cc(Cl)cn12` | 11220 | activator, partial curve |
| `Brc1c(Br)c(Br)c2n[nH]nc2c1Br` | 5623 | activator, full curve |
| `COc1ccccc1NC(=O)Nc1nc(-c2cccnc2)nc2ccccc12` | 5623 | activator, single point |
| `CCCCCCCCCCCCCC(=O)O[C@@H]1[C@@H](C)[C@@]2(O)[C@@H](C=C(CO)C[C@@]3(O)C(=O)C(C)=C[C@@H]23)C2C(C)(C)[C@@]21OC(C)=O` (some centres unmarked) | 14125 | activator, partial curve |
| `O=c1[nH]oc2c1CCNC2` | 11220 | activator, single point |
| `CC12C(=O)OC(=O)C1(C)C1CCC2O1` (centres unmarked) | 1995 | activator, full curve |
| `CN(C)CCCN1c2ccccc2Sc2ccc(C(F)(F)F)cc21` | 11220 | activator, single point |
| `CN1CCc2cc(O)cc3c2C1Cc1ccc(O)c(O)c1-3` (centres unmarked) | 31622 | activator, single point |
| `CCCCCCC/C=C\CCCCCCCCC(=O)O` | 31622 | activator, single point |
| `CNCCc1ccc(O)c(O)c1` | 35481 | activator, single point |
| `NC(=NCc1ccccc1)NC(=O)c1nc(Cl)c(N)nc1N` | 15848 | activator, single point |
| `CCCn1c(C)c(C(=O)c2ccc3ccccc3c2)c2ccccc21` | 22387 | activator, single point |
| `COc1ccccc1N1CCN(CCCCNS(=O)(=O)c2cccc3c(N(C)C)cccc23)CC1` | 22387 | activator, single point |
| `Cc1ccc(S(=O)(=O)N[C@@H](Cc2ccccc2)C(=O)CCl)cc1` | 3162 | activator, full curve |
| `NC(N)=NC(=O)Cc1c(Cl)cccc1Cl` | 7943 | activator, partial curve, poor fit |
| `CCCN(CC1CC1)c1nc(C)nc(Nc2c(Cl)cc(Cl)cc2Cl)c1Cl` | 15848 | activator, single point |
| `C#CCN1C(C)=C(C(=O)OC)C(c2cccc([N+](=O)[O-])c2)C(C(=O)OCC)=C1C` (centres unmarked) | 17782 | activator, single point |
| `COC[C@H]1OC(=O)c2coc3c2[C@@]1(C)C1=C(C3=O)C2CCC(=O)[C@@]2(C)C[C@H]1OC(C)=O` (some centres unmarked) | 12589 | activator, partial curve |
| `CCCCCCCC/C=C\CCCCCCCC(=O)NCCO` | 12589 | activator, single point |
| `Cc1nc(-c2ccc(-c3ccc(C(=O)N4CCc5cc6c(cc54)C4(CCN(C)CC4)CO6)cc3)c(C)c2)no1` | 15848 | activator, single point |
| `CC(=O)SC1CC2=CC(=O)CC[C@]2(C)C2CC[C@@]3(C)[C@@H](CC[C@@]34CCC(=O)O4)C12` (some centres unmarked) | 14125 | activator, single point |
| `O=C(OC1CCN(CCCl)CC1)C(c1ccccc1)c1ccccc1` | 22387 | activator, partial curve |
| `CC(C)(C)[C@]1(O)CCN2CC3c4ccccc4CCc4cccc(c43)[C@@H]2C1` (some centres unmarked) | 17782 | activator, single point |
| `C[C@@H]1O[C@@H](O[C@H]2C[C@@H](O)[C@]3(CO)[C@H]4[C@H](O)C[C@]5(C)[C@@H]([C@@H]6COC(=O)C6)CC[C@]5(O)[C@@H]4CC[C@]3(O)C2)[C@H](O)[C@H](O)[C@H]1O` | 1585 | activator, partial curve |
| `O=C(CCCN1CCC2(CC1)C(=O)NCN2c1ccccc1)c1ccc(F)cc1` | 14125 | activator, single point |
| `CC(=O)c1c(O)c(C)c(O)c(Cc2c(O)c3c(c(C(=O)/C=C/c4ccccc4)c2O)OC(C)(C)C=C3)c1O` | 3981 | activator, full curve |
| `CNCCC(Oc1ccc(C(F)(F)F)cc1)c1ccccc1` (centres unmarked) | 14125 | activator, single point |
| `COc1ccccc1N1CCN(CC(O)COc2cccc3ccccc23)CC1` (centres unmarked) | 15848 | activator, partial curve |
| `Cc1ccccc1CNc1ncnc2c1ncn2C1OC(CO)C(O)C1O` (centres unmarked) | 15848 | activator, single point |
| `Oc1cc2c(cc1O)[C@H]1c3ccccc3CNC1CC2` (some centres unmarked) | 17782 | activator, single point |
| `O=C(O)C1C2CCC(O2)C1C(=O)O` (centres unmarked) | 12589 | activator, single point |
| `NCCCCNS(=O)(=O)c1cccc2c(Cl)cccc12` | 11220 | activator, partial curve |
| `Nc1nc(N)c2nc(-c3ccccc3)c(N)nc2n1` | 35481 | activator, single point |
| `CC(=O)N1CCN(c2ccc(OC[C@H]3CO[C@](Cn4ccnc4)(c4ccc(Cl)cc4Cl)O3)cc2)CC1` | 12589 | activator, partial curve |
| `OCCN1CCN(CCCN2c3ccccc3Sc3ccc(C(F)(F)F)cc32)CC1` | 14125 | activator, partial curve |
| `CN[C@@H](C)[C@H](O)c1ccccc1` | 14125 | activator, single point |
| `CCCCCCCCCCCCCCSCC(=O)O` | 15848 | activator, single point |
| `C1COC(NC(C2CC2)C2CC2)=N1` | 14125 | activator, single point |
| `CCOC(=O)Nc1ccc(NCc2ccc(F)cc2)nc1N` | 35481 | activator, single point |
| `C[C@@H]1O[C@@H](O[C@H]2C[C@@H](O)[C@]3(CO)[C@@H]4C(CC[C@]3(O)C2)[C@@]2(O)CC[C@H](C3=CC(=O)OC3)[C@@]2(C)C[C@H]4O)[C@H](O)[C@H](O)[C@H]1O` (some centres unmarked) | 112.2 | activator, partial curve |
| `COc1cc2c(cc1O)CCC1C2CC[C@]2(C)[C@@H](O)CC[C@@H]12` (some centres unmarked) | 3162 | activator, full curve |
| `O=S(=O)(c1cccc2c(Cl)cccc12)N1CCCNCC1` | 15848 | activator, partial curve |
| `CCCCCCCCCCCCCCCC(=O)NCC(COP(=O)([O-])OCC[N+](C)(C)C)OCC` (centres unmarked) | 3162 | activator, full curve |
| `CN1CCc2ccccc2Cc2[nH]c3ccccc3c2CC1` | 31622 | activator, single point |
| `CC(C)C[C@H](N)CSSC[C@@H](N)CC(C)C` | 22387 | activator, single point |
| `O=C(O)CCCc1ccc(N(CCCl)CCCl)cc1` | 11220 | activator, single point |
| `CC(C)(C)[C@]1(O)CCN2CC3c4ccccc4CCc4cccc(c43)[C@@H]2C1` (some centres unmarked) | 35481 | activator, single point |
| `Cc1cc(O)c2c(c1)C(=O)c1cc(O)cc(O)c1C2=O` | 12589 | activator, partial curve |
| `NCC(O)C1CCCCCCC1` (centres unmarked) | 2818 | activator, full curve, poor fit |
| `COc1ccc2c(c1)c(CC(=O)N1CCOCC1)c(C)n2C(=O)c1ccc(Cl)cc1` | 14125 | activator, single point |
| `CC#CCOC(=O)c1c(C)nc2sc3c(c2c1N)CCC(O)C3` (centres unmarked) | 3162 | activator, full curve |
| `NC(N)=Nc1ccc2[nH]c3c(c2c1)C[C@@]1(O)[C@H]2Cc4ccc(O)c5c4[C@@]1(CCN2CC1CC1)[C@H]3O5` | 19952 | activator, single point |
| `CN1CCN(CC(=O)N2c3ccccc3C(=O)Nc3cccnc32)CC1` | 35481 | activator, single point |
| `C[C@@H](Oc1ccc(Oc2cnc3ccc(Cl)cc3n2)cc1)C(=O)O` | 6310 | activator, full curve |
| `C=CCN1CCc2cccc3c2C1Cc1ccc(O)c(O)c1-3` (centres unmarked) | 14125 | activator, single point |
| `CC[C@H](C)C(=O)O[C@H]1CCC=C2C=C[C@H](C)[C@H](CC[C@@H]3C[C@H](O)CC(=O)O3)C21` (some centres unmarked) | 5012 | activator, partial curve |

Some entries from above, unchanged:

Compound,fitted potency (nM),curve as filed
NC(N)=NC(=O)Cc1c(Cl)cccc1Cl,7943,"activator, partial curve, poor fit"
Cc1ccc(S(=O)(=O)N[C@@H](Cc2ccccc2)C(=O)CCl)cc1,3162,"activator, full curve"
COc1ccccc1N1CCN(CCCCNS(=O)(=O)c2cccc3c(N(C)C)cccc23)CC1,22387,"activator, single point"
Cc1cc(O)c2c(c1)C(=O)c1cc(O)cc(O)c1C2=O,12589,"activator, partial curve"
CC(=O)N1CCN(c2ccc(OC[C@H]3CO[C@](Cn4ccnc4)(c4ccc(Cl)cc4Cl)O3)cc2)CC1,12589,"activator, partial curve"
COC[C@H]1OC(=O)c2coc3c2[C@@]1(C)C1=C(C3=O)C2CCC(=O)[C@@]2(C)C[C@H]1OC(C)=O (some centres unmarked),12589,"activator, partial curve"

Data taken from PubChem BioAssay AID463097, deposited by NCATS (2010).